Among all 320,000 compounds or so, about 22,000 (6.9%) were called active. Inconclusive results, whose numbers are uncertain, are shown with a selection of clear calls. Calls follow the shape of the dose curve; as a rule, active = well fitted inhibition curve with a large enough effect; inconclusive = small, poorly fitted or top-dose-only effect, or another doubt; inactive = no such curve, though single readings can be large or run the other way. Potencies beside an inconclusive call are fits to weak or partial responses and may not hold up.
Assay: Primary qHTS for delayed death inhibitors of the malarial parasite plastid, 96 hour incubation
Details: P. falciparum luciferase reporter growth; series mostly up to 28.7 µM; activity change, negative = inhibition: at the top concentration
How it was run: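 96 h incubation, 37 C, 5% CO2, of luciferase-reporter P. falciparum-infected RBCs (2% hematocrit, 0.05% parasitemia final) with test compounds; endpoint luminescence.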
% is scaled to controls: 0 for no effect and ±100 for the full control effect; potency is read from the fitted curve at half-maximal effect.

Structure (SMILES) | activity change, negative = inhibition | Potency
Fc1ccc(N2CCN(Cc3nnc(-c4ccccc4)o3)CC2)cc1 | inactive: 17.2% | –
O=C(CC(Nc1cccc(Cl)c1Cl)C(=O)O)c1ccccc1 (stereo unspecified) | inactive: -8.87% | –
O=C(Nc1cccc(S(=O)(=O)Nc2ccc(Cl)cc2)c1)c1ccccn1 | – | inconclusive: 18.5 µM [inhibitor, single point]
O=C(c1ccc(Cl)cc1Cl)N1CCC(c2nc3c(nnn3Cc3ccco3)c(=O)[nH]2)CC1 | – | inconclusive: 11.7 µM [inhibitor, partial curve, poor fit]
O=C(COC(=O)c1cc(-c2cccs2)nn1-c1ccccc1)Nc1ccc(F)c([N+](=O)[O-])c1 | inactive: -18.7% | –
COC(=O)c1ccc(Cl)c(NS(=O)(=O)c2ccc3c(c2)OCCO3)c1 | – | inconclusive: 10.4 µM [inhibitor, single point]
N#CCSc1nc(-c2ccccc2)nc2ccccc12 | – | inconclusive: 13.1 µM [inhibitor, single point]
CCN(/C(N)=N/c1nc(C)cc(C)n1)c1ccccc1 | inactive: -4.2% | –
CCOC(=O)N1CCN(Cc2cc(=O)oc3cc4c(cc23)CCC4)CC1 | – | active: 4.65 µM
COC(=O)C1=C(C)NC(=O)/C1=C\N(C)C | inactive: 29.2% | –
COc1ccc(N=C(c2ccccc2)c2c(C)[nH]n(-c3ccccc3)c2=O)c(OC)c1 | – | inconclusive: 10.4 µM [inhibitor, single point]
CCOC(=O)/C(=C\c1cccc(O)c1)c1nc2sc(C)c(C)c2c(=O)[nH]1 | – | inconclusive: 18.5 µM [inhibitor, single point]
Cc1cc2c(NC(=O)Nc3ccc(F)cc3)cccc2nn1 | – | inconclusive: 2.33 µM [inhibitor, single point]
CC(=O)c1ccc(NC(=O)CSc2nc(N3CCOCC3)nc(N3CCOCC3)n2)cc1 | inactive: 16.2% | –
O=C(COC(=O)c1cc[n+]([O-])cc1)NCC12CC3CC(CC(C3)C1)C2 | inactive: 15.1% | –
Cc1ccc2[nH]c(=O)c(CN(Cc3cccs3)Cc3nnnn3CC3CCCO3)cc2c1 (stereo unspecified) | – | inconclusive: 18.5 µM [inhibitor, single point]
COc1ccccc1NC(=O)CN1C(=O)CSC(C)C1=O (stereo unspecified) | – | inconclusive: 4.15 µM [inhibitor, single point]
CC(NC(=O)NC1CCCCC1)C(c1cccs1)N1CCN(Cc2ccccc2)CC1 (stereo unspecified) | inactive: -15.4% | –
O=C(Nc1ccc(N2CCOCC2)cc1)C1CCN(S(=O)(=O)c2ccc3c(c2)OCCO3)CC1 | – | inconclusive: 5.22 µM [inhibitor, partial curve, poor fit]
COc1ccc(Cl)cc1Nc1nc2ccc(C)cc2n2cnnc12 | inactive: 7.65% | –
CC1CCc2sc(C(=O)NCC(c3ccco3)N3CCCCC3)cc2C1 (stereo unspecified) | – | inconclusive: 10.4 µM [inhibitor, partial curve, poor fit]

Copied from the list.
Value for O=C(c1ccc(Cl)cc1Cl)N1CCC(c2nc3c(nnn3Cc3ccco3)c(=O)[nH]2)CC1 under Potency: inconclusive: 11.7 µM [inhibitor, partial curve, poor fit]
Value for CC(NC(=O)NC1CCCCC1)C(c1cccs1)N1CCN(Cc2ccccc2)CC1 (stereo unspecified) under activity change, negative = inhibition: inactive: -15.4%

From PubChem BioAssay AID504834 (National Center for Advancing Translational Sciences (NCATS), 2011)
